Data on 3 molecules can be found in PMC8991925.

The chains behind the UniProt entries cited, without tags or fusion partners.
UniProt P03372: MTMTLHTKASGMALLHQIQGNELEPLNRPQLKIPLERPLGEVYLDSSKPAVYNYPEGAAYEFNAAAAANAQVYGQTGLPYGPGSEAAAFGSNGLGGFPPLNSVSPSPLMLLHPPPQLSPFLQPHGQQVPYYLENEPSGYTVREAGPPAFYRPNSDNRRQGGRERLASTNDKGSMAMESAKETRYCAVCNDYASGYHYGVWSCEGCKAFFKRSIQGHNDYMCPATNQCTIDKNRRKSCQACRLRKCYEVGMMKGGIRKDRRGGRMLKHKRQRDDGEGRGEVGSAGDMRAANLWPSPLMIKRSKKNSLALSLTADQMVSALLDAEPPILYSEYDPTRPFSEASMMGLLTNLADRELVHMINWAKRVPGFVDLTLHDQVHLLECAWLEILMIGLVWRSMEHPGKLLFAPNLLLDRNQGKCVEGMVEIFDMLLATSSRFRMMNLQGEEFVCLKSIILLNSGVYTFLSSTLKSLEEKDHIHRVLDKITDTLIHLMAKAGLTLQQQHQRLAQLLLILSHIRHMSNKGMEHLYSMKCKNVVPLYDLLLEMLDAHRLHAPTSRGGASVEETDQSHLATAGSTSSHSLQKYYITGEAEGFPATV

For one experiment, the target named is T1, Myc-TRIM3 (UniProt O75382).
T1 sequence: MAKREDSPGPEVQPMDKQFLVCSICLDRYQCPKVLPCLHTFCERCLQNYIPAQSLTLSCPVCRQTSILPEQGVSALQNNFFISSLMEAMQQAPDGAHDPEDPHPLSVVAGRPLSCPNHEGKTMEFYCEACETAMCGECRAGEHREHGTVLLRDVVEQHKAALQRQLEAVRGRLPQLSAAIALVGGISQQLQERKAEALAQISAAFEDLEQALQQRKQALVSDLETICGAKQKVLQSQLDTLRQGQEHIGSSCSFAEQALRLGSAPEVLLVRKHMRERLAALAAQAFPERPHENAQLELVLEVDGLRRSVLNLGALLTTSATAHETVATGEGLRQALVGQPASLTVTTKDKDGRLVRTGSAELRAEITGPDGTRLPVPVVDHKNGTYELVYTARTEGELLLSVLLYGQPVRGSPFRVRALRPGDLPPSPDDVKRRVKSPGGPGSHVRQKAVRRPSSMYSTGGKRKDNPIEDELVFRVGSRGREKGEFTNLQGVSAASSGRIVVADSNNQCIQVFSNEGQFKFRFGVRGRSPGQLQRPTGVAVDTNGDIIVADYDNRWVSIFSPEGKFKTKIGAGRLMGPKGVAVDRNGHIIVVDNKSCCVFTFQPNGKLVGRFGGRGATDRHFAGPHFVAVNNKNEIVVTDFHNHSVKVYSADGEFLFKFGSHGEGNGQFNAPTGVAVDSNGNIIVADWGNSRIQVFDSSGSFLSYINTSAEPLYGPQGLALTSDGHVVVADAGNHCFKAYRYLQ
Briefly: co-IP; HEK293 cells transfected with Myc-TRIM3 and HA-ER alpha full length or mutants; co-IP with anti-Myc antibody, detection with anti-HA antibody.

Experiment [1] has as its target Estrogen receptor (ER) alpha (human (endogenous in MCF-7)) (UniProt P03372). Kind of experiment: co-IP; endogenous proteins; MCF-7 total cell lysate precleared with rabbit IgG, immunoprecipitated with anti-ER alpha antibody overnight, rabbit IgG as negative control; blot with anti-TRIM3.
The next experiment has as its target HA-ER alpha full length (UniProt P03372). Kind of experiment: co-IP; HEK293 cells transfected with HA-ER alpha and GFP-TRIM3 full length or mutants; co-IP with anti-HA antibody, detection with GFP antibody.

These are yes or no findings as the source states them, for the method shown. In cells and extracts the contact can be indirect. Some entries that bind do so weakly or less than the wild type. For part of these data: Sequences can lack the tags named with a protein.

With “HA-ER alpha full length (from UniProt P03372 1-595)”, in the experiment with Myc-TRIM3, the binding entry is on record as “binds”.

B1: TRIM3 (tripartite motif containing 3) (protein, UniProt O75382 1-744)
chain: MAKREDSPGPEVQPMDKQFLVCSICLDRYQCPKVLPCLHTFCERCLQNYIPAQSLTLSCPVCRQTSILPEQGVSALQNNFFISSLMEAMQQAPDGAHDPEDPHPLSVVAGRPLSCPNHEGKTMEFYCEACETAMCGECRAGEHREHGTVLLRDVVEQHKAALQRQLEAVRGRLPQLSAAIALVGGISQQLQERKAEALAQISAAFEDLEQALQQRKQALVSDLETICGAKQKVLQSQLDTLRQGQEHIGSSCSFAEQALRLGSAPEVLLVRKHMRERLAALAAQAFPERPHENAQLELVLEVDGLRRSVLNLGALLTTSATAHETVATGEGLRQALVGQPASLTVTTKDKDGRLVRTGSAELRAEITGPDGTRLPVPVVDHKNGTYELVYTARTEGELLLSVLLYGQPVRGSPFRVRALRPGDLPPSPDDVKRRVKSPGGPGSHVRQKAVRRPSSMYSTGGKRKDNPIEDELVFRVGSRGREKGEFTNLQGVSAASSGRIVVADSNNQCIQVFSNEGQFKFRFGVRGRSPGQLQRPTGVAVDTNGDIIVADYDNRWVSIFSPEGKFKTKIGAGRLMGPKGVAVDRNGHIIVVDNKSCCVFTFQPNGKLVGRFGGRGATDRHFAGPHFVAVNNKNEIVVTDFHNHSVKVYSADGEFLFKFGSHGEGNGQFNAPTGVAVDSNGNIIVADWGNSRIQVFDSSGSFLSYINTSAEPLYGPQGLALTSDGHVVVADAGNHCFKAYRYLQ
For the molecule B1, in experiment [1], the binding result is recorded as “binds”.

B2: GFP-TRIM3 full length (protein, UniProt O75382 1-744)
chain: MAKREDSPGPEVQPMDKQFLVCSICLDRYQCPKVLPCLHTFCERCLQNYIPAQSLTLSCPVCRQTSILPEQGVSALQNNFFISSLMEAMQQAPDGAHDPEDPHPLSVVAGRPLSCPNHEGKTMEFYCEACETAMCGECRAGEHREHGTVLLRDVVEQHKAALQRQLEAVRGRLPQLSAAIALVGGISQQLQERKAEALAQISAAFEDLEQALQQRKQALVSDLETICGAKQKVLQSQLDTLRQGQEHIGSSCSFAEQALRLGSAPEVLLVRKHMRERLAALAAQAFPERPHENAQLELVLEVDGLRRSVLNLGALLTTSATAHETVATGEGLRQALVGQPASLTVTTKDKDGRLVRTGSAELRAEITGPDGTRLPVPVVDHKNGTYELVYTARTEGELLLSVLLYGQPVRGSPFRVRALRPGDLPPSPDDVKRRVKSPGGPGSHVRQKAVRRPSSMYSTGGKRKDNPIEDELVFRVGSRGREKGEFTNLQGVSAASSGRIVVADSNNQCIQVFSNEGQFKFRFGVRGRSPGQLQRPTGVAVDTNGDIIVADYDNRWVSIFSPEGKFKTKIGAGRLMGPKGVAVDRNGHIIVVDNKSCCVFTFQPNGKLVGRFGGRGATDRHFAGPHFVAVNNKNEIVVTDFHNHSVKVYSADGEFLFKFGSHGEGNGQFNAPTGVAVDSNGNIIVADWGNSRIQVFDSSGSFLSYINTSAEPLYGPQGLALTSDGHVVVADAGNHCFKAYRYLQ
Turning to B2, the binding result with HA-ER alpha full length was “binds”.
